This is a selection; strong and weak results do not stand in their true shares. For part of these data: At the low end of the ranking the order means little. The list shows a part of the results. For part of these data: The exact form of the protein is not confirmed.
What was measured:
Assay in all cases: DAPPL (digital affinity profiling via proximity ligation, sequencing)
Conditions in all cases: 10 mM Tris-HCl pH 7.5, 50 mM NaCl, 1 mM DTT, 4% glycerol, room temperature, 30 min; GST-TFs on glutathione beads, 16-mer random dsDNA library, 0.1% …; high values mean tight binding; double strand, one strand shown; scale: fold enrichment (6-mer frequency, TF over GST control)
ERG = target: T1, ERG (UniProt P11308)
T1 sequence: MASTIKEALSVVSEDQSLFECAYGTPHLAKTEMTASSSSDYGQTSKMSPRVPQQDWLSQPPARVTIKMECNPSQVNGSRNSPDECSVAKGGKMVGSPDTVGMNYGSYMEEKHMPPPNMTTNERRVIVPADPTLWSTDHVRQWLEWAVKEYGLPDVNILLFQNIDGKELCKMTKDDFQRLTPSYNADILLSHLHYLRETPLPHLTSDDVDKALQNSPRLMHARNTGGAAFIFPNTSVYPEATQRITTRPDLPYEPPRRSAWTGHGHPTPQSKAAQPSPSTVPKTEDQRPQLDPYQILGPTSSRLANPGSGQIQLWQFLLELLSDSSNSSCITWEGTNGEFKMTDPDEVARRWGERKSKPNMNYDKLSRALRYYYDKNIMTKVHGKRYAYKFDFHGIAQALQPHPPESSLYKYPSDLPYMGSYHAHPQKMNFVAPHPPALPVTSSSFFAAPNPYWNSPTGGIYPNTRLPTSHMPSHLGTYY

By UniProt entry, the sequences of proteins in these tests, tags left out. Where a name states a change or a piece, a line headed by the entry shows the natural chain unless it says otherwise.
UniProt P32519: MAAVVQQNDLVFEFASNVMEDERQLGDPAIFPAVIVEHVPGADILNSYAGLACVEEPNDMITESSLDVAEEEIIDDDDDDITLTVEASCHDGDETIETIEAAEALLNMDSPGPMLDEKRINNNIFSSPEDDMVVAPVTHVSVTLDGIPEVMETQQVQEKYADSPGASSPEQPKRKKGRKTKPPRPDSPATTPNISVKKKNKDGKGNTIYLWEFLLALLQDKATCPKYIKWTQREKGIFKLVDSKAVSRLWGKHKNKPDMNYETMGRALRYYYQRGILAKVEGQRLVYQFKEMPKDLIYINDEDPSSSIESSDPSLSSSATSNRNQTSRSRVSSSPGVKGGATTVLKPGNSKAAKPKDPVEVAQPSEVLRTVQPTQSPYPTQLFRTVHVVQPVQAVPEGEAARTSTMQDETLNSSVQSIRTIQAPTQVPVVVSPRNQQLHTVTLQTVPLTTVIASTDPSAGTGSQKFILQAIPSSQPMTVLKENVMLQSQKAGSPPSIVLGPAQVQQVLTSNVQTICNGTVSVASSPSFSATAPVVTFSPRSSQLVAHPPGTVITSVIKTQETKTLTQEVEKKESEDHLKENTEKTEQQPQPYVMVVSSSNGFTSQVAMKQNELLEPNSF
UniProt P50549: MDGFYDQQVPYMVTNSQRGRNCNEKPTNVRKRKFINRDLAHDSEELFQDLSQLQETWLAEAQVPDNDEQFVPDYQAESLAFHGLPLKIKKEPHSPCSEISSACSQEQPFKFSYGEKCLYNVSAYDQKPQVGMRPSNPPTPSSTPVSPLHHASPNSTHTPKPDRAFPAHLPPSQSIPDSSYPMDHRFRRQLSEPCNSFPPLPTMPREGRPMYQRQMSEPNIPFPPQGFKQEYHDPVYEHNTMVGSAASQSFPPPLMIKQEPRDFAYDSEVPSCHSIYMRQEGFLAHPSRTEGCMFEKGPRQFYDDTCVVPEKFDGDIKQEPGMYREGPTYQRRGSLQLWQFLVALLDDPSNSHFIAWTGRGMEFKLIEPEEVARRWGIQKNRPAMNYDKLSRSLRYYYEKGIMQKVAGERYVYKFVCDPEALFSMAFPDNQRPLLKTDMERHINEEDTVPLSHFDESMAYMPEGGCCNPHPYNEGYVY

ELF1 = ELF1 (UniProt P32519)
ELK4 = target: T2, ELK4 (UniProt P28324-2)
T2 sequence: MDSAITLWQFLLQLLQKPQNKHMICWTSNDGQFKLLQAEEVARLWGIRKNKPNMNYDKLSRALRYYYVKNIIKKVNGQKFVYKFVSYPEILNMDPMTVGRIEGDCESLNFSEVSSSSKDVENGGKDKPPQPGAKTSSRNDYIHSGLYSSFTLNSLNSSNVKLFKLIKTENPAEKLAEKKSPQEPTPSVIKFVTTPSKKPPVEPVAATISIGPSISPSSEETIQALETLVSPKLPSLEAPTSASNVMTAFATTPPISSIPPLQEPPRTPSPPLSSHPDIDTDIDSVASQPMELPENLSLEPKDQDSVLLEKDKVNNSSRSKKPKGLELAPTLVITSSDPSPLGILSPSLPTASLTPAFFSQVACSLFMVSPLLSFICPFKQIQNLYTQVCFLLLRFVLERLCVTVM

ETV4 = target: T3, ETV4 (UniProt P43268)
T3 sequence: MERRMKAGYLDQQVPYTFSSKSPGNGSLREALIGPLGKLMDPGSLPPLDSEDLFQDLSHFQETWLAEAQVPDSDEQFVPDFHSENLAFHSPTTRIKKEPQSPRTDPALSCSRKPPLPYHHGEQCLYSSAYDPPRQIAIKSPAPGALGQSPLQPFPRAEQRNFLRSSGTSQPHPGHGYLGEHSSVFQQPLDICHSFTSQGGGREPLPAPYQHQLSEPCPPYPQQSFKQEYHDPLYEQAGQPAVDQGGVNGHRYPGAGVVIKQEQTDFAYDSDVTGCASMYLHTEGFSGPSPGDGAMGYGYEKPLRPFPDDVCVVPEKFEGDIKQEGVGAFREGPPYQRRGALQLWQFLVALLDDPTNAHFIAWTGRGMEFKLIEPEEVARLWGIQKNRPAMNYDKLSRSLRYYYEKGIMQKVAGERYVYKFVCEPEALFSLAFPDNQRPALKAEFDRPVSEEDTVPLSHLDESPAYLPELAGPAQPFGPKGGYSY

ETV1 = ETV1 (UniProt P50549)
ERF = target: T4, ERF (UniProt P50548)
T4 sequence: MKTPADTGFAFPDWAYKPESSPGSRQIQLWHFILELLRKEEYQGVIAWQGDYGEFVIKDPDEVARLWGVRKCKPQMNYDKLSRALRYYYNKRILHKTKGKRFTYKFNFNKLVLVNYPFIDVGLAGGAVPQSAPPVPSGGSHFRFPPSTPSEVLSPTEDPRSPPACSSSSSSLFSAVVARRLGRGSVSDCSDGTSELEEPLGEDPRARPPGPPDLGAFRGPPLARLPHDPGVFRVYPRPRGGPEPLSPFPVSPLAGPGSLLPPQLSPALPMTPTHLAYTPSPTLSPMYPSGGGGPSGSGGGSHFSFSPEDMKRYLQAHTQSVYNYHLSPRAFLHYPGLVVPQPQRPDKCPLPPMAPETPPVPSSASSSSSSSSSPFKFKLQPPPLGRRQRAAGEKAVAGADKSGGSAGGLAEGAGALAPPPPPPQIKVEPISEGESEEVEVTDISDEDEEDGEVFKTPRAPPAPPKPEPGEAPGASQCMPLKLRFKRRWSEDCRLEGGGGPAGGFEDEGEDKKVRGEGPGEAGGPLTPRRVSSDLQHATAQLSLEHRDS

Sequence | binding signal (ERG) | binding signal (ELF1) | binding signal (ELK4) | binding signal (ETV4) | binding signal (ETV1) | binding signal (ERF)
GAGCCC | 0.712 | 0.789 | 0.75 | 0.758 | 0.714 | 0.781
TCAGGG | 0.765 | 0.831 | 0.838 | 0.835 | 0.777 | 0.899
AGCCGC | 0.881 | 0.895 | 0.905 | 0.902 | 0.842 | 0.958
ATGAGT | 0.679 | 0.717 | 0.651 | 0.702 | 0.711 | 0.686
CGGGTG | 0.635 | 0.672 | 0.755 | 0.622 | 0.693 | 0.659
GACAAC | 0.941 | 0.982 | 0.862 | 0.962 | 0.973 | 0.883
AGCCAG | 0.504 | 0.466 | 0.467 | 0.488 | 0.458 | 0.441
GGGAGA | 0.354 | 0.337 | 0.297 | 0.304 | 0.332 | 0.344
GCCAAA | 0.881 | 0.96 | 0.87 | 0.926 | 0.859 | 0.869
GATCGC | 0.868 | 0.849 | 0.878 | 0.866 | 0.812 | 0.902
CAGACC | 0.771 | 0.789 | 0.773 | 0.826 | 0.862 | 0.73
CCGTGC | 0.665 | 0.564 | 0.551 | 0.629 | 0.647 | 0.628
ATCAGG | 0.926 | 0.95 | 0.99 | 0.91 | 0.885 | 0.87
GAGAGC | 0.343 | 0.375 | 0.377 | 0.381 | 0.36 | 0.355
GACAGT | 0.45 | 0.452 | 0.521 | 0.439 | 0.461 | 0.461
GGGTGC | 0.743 | 0.777 | 0.855 | 0.751 | 0.701 | 0.858
GGGACA | 0.681 | 0.679 | 0.658 | 0.708 | 0.692 | 0.742
TCAGCG | 0.788 | 0.798 | 0.918 | 0.792 | 0.716 | 0.675
GTACGG | 0.907 | 0.809 | 0.869 | 0.781 | 0.802 | 0.834
TGTGGG | 0.817 | 0.796 | 0.876 | 0.897 | 0.691 | 0.828
TGGGGG | 0.767 | 0.75 | 0.964 | 0.686 | 0.823 | 0.837
AGTCAG | 0.481 | 0.481 | 0.428 | 0.464 | 0.54 | 0.465
GCAGGA | 0.878 | 0.796 | 0.753 | 0.848 | 0.851 | 0.733
TGCAGT | 0.771 | 0.838 | 0.942 | 0.777 | 0.773 | 0.845

Sequence | binding signal (ERG) | binding signal (ELF1) | binding signal (ELK4) | binding signal (ETV4) | binding signal (ETV1) | binding signal (ERF)
AAACGT | 0.924 | 0.952 | 0.896 | 0.927 | 0.95 | 0.958
GTATAG | 0.864 | 0.911 | 0.909 | 0.877 | 0.903 | 0.997
AGCCGG | 0.63 | 0.584 | 0.565 | 0.607 | 0.627 | 0.538
CGAGCG | 0.96 | 0.878 | 0.891 | 0.898 | 0.963 | 0.939
TGTGTG | 0.784 | 0.813 | 0.935 | 0.819 | 0.926 | 0.753
GGTCAA | 0.922 | 0.867 | 0.941 | 0.897 | 0.843 | 0.915
AGTCGG | 0.166 | 0.139 | 0.144 | 0.132 | 0.143 | 0.154
GAGCGT | 0.362 | 0.339 | 0.365 | 0.348 | 0.346 | 0.354
TCGGTA | 0.597 | 0.66 | 0.631 | 0.593 | 0.619 | 0.614
ATCGAG | 0.83 | 0.858 | 0.867 | 0.862 | 0.869 | 0.937
CGGAGC | 0.415 | 0.373 | 0.398 | 0.38 | 0.398 | 0.433
TGTCGA | 0.869 | 0.832 | 0.879 | 0.891 | 0.885 | 0.826
GAGGCC | 0.465 | 0.427 | 0.449 | 0.43 | 0.419 | 0.45
GTGTAG | 0.667 | 0.674 | 0.621 | 0.614 | 0.654 | 0.728
ACCAGG | 0.73 | 0.722 | 0.736 | 0.729 | 0.776 | 0.788
GGCCGA | 0.679 | 0.734 | 0.721 | 0.756 | 0.648 | 0.831
TAGGCG | 0.652 | 0.673 | 0.567 | 0.623 | 0.684 | 0.57
GGCGAT | 0.731 | 0.823 | 0.844 | 0.753 | 0.892 | 0.78
GGTGGG | 0.694 | 0.679 | 0.566 | 0.631 | 0.603 | 0.736
GAGCTG | 0.78 | 0.768 | 0.787 | 0.812 | 0.749 | 0.739
CCAGGT | 0.705 | 0.705 | 0.754 | 0.781 | 0.811 | 0.836
GCGTAC | 0.907 | 0.915 | 0.945 | 0.932 | 0.927 | 0.905
CCGTTG | 0.961 | 0.948 | 0.905 | 0.907 | 0.827 | 0.94

Some of the entries above, reformatted.
Sequence	binding signal (ERG)	binding signal (ELF1)	binding signal (ELK4)	binding signal (ETV4)	binding signal (ETV1)	binding signal (ERF)
AGCCAG	0.504	0.466	0.467	0.488	0.458	0.441
GAGCGT	0.362	0.339	0.365	0.348	0.346	0.354

From PMC7862700
